Reference: US7220764B2, “Sphingosine kinase inhibitors” (The Pennsylvania State University Research Foundation, priority 2002, dated 2007)
Some results were stated once for a whole list of compounds, not compound by compound.

Amino acid sequences for entries named in this document (tags omitted).
UniProt Q9NYA1, whole entry: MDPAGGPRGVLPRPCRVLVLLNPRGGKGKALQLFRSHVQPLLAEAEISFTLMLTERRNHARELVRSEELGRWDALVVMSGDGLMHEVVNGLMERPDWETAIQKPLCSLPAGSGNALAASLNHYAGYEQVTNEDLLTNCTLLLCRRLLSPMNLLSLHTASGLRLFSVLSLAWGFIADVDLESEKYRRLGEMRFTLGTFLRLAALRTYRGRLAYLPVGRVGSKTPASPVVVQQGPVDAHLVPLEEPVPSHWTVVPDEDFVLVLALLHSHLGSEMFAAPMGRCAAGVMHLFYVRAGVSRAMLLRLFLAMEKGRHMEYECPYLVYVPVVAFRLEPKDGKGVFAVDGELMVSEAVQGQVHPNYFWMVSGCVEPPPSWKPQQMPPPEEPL

Biological target: T1, purified human SK (Homo sapiens, UniProt Q9NYA1)
T1 construct: glutathione-S-transferase (GST); made in house; host or cells: bacteria (PGEX bacterial expression vector, Pharmacia)
Assay: ATP competition assays (KM for ATP and Vmax)
Format: biochemical
Settings: for KM for ATP with increasing inhibitor concentration: sphingosine and SK constant, ATP and inhibitor varied

Row | Compound | mechanism of SK inhibition (ATP binding site competition) | KM for ATP with increasing inhibitor concentration
1 | COc1ccc(N2C(=O)/C(=C\c3ccc(O)cc3O)SC2=S)cc1 [Compound 1, 5-(2,4-Dihydroxy-benzylidene)-3-(4-methoxy-phenyl)-2-thioxo-thiazolidin-4-one] | binding to a site other than the ATP binding site | tendency to decrease
2 | O=C(N/N=C/c1c(O)ccc2ccccc12)c1cc(-c2ccc3ccccc3c2)n[nH]1 [Compound 2, 5-Naphthalen-2-yl-2H-pyrazole-3-carboxylic acid (2-hydroxy-naphthalen-1-ylmethylene)-hydrazide] | – | tendency to decrease
3 | O=C1/C(=C/c2ccc(O)c(O)c2)Sc2ccccc21 [Compound 4, 2-(3,4-Dihydroxy-benzylidene)-benzo [b] thiophen-3-one] | binding to a site other than the ATP binding site | tendency to decrease
